# Test results from PMC11600598.
# Amino acid sequences for entries named in this document (tags omitted).
# UniProt P18848: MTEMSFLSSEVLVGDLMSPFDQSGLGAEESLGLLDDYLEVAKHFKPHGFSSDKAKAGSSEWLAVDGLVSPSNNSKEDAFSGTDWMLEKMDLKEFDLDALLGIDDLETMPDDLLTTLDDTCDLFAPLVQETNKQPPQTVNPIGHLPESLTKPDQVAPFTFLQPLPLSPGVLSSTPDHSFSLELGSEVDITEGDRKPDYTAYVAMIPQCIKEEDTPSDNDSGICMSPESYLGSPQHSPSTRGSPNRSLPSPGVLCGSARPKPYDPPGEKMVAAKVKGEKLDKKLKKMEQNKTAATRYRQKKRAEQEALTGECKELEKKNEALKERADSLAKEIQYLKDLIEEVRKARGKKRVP
# UniProt Q14974: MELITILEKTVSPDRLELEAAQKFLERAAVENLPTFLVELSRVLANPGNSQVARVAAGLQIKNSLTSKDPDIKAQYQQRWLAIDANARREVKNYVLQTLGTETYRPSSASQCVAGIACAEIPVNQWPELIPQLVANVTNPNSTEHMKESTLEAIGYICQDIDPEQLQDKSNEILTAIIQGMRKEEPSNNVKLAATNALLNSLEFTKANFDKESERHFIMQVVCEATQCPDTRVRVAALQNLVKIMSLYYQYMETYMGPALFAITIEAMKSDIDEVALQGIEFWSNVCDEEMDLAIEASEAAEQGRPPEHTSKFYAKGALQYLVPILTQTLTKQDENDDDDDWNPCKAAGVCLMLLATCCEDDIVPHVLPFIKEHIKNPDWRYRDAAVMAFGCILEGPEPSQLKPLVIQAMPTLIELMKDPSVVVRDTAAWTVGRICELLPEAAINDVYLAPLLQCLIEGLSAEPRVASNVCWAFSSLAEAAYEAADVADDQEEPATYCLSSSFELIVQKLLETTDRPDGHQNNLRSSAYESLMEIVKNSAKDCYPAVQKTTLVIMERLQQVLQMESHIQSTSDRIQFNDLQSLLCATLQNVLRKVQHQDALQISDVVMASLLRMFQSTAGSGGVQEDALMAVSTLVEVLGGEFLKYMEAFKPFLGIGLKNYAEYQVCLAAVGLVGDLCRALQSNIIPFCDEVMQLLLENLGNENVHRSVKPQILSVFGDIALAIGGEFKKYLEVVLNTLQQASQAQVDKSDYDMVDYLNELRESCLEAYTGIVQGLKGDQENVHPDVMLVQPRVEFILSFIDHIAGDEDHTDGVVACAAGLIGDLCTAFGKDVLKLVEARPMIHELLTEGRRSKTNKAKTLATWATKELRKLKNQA
# Results are given in words; binding and its absence hold for the method and conditions named. In cells and extracts the contact can be indirect. Some binding calls cover weakened binding; strength is not graded here.
# Experiments:
# [1] = target: wild-type ATF4 fused with FLAG (UniProt P18848); assay: co-IP; DPSCs transfected with FLAG-fused wild-type ATF4 or the 280-299 deletion mutant; co-precipitated endogenous KPNB1 detected by western blot
# [2] = target: Activating transcription factor 4 (human (endogenous in DPSCs)) (UniProt P18848); assay: co-IP; endogenous proteins of DPSC lysate (1 mg); primary antibody or isotype control IgG cross-linked to protein A/G magnetic beads (Pierce Crosslink Magnetic IP/Co-IP Kit), overnight at 4 °C; western blot; cells in control medium or odontoblastic medium (OM) for 3 days
substance,measurement,setting,value
Importin subunit beta-1 (from UniProt Q14974 1-876),binding,[1],binds
same,binding,[2],binds
